The list does not hold the whole screen: its compounds were picked by chemical class. Not every dose and run of a compound is shown. T/C is the treated group as % of the vehicle group. For survival time, this PubChem deposit counts one and a half times the control or more as active, and values a quarter to a half above the control carry no call in these data; other NCI protocols may use other cut-offs. Schedules are NCI's codes, read here as Q, the interval in days (D) or hours (H), X, the number of doses. Some entries show no survivor count and are marked so; the dose need not have been tolerated. Some doses were run more than once; their values stand side by side, smallest first.

In this assay the test system is BDF1 mice, intracerebral B16 melanoma, median survival T/C. The assay can be described thus: NCI In Vivo Anticancer Drug Screen. Data for tumor model B16 Melanoma (intracerebral) in B6D2F1 (BDF1) mice. As to conditions: T/C endpoint: median survival time, schedule: Q01DX005 (ip), vehicle: saline, higher T/C = longer survival. The protocol: The antitumor activity of compounds was measured in mice bearing transplantable tumors. Survival or tumor size were measured and the results are expressed as the measurement made in the treated group (T) divided by the measurement made in the vehicle treated control group (C). The tumor model used in this assay is B16 Melanoma (intracerebral) in B6D2F1 (BDF1) mice

As for `CC(=O)OCC12CCC(C)=CC1OC1C(O)C(OC(C)=O)C2(C)C12CO2` (stereo not drawn), the T/C was 102 [survivor count not shown] and 126 % of control [survivor count not shown] (dose: 2.0 mg/kg/injection); 118 [survivor count not shown] and 131 % of control [survivor count not shown] (dose: 4.0 mg/kg/injection); 124 % of control [survivor count not shown] (dose: 8.0 mg/kg/injection).

Source of the values: PubChem BioAssay AID196 (DTP/NCI, 2004).
